# Source: PubChem BioAssay AID624132 (Broad Institute, 2012)
# Hit rate of the full screen: of about 1,600 compounds, about 1,500 (94%) were called active. The set was probably picked from earlier hits. The list shows a part of the results, in another mix than the full data. Entries with a potency or affinity are not part of this list. Inconclusive results are not listed.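 The calls were made as follows: active = signal drop with fitted half-maximal concentration at most twice the top valid dose for that sample; inconclusive = flat fit between 30 and 70% inhibition, or poor curve fit; inactive = the rest.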
# Assay: Shn3 3'UTR reporter inhibitors, dose response, cell-based, Clone20 osteoblasts, firefly luciferase, cherry-picked (AID 624132)
# Settings: Clone20 osteoblast Shn3 3'UTR firefly luciferase, 24 h; at 35 µM (top of the series)
row,SMILES,"activity change, negative = inhibition"
1,CC(C)N1CCN(Cc2c[nH]c3ccccc23)CC1CCO (centres undefined),inactive: -2.35%
2,CCN1C[C@]2(COC)CC[C@H](OC)[C@@]34C1[C@]1(OCO[C@@]15C[C@H](OC)[C@H]1C[C@@H]3[C@@H]5[C@H]1OC)[C@@H](O)[C@H]24,inactive: 11.2%
3,CCOC(=O)C1C(=O)NC2(C)CC1c1cc(OC)ccc1O2 (centres undefined),inactive: 6.5%
4,COc1cccc2c1O[C@H]1C(=O)CC[C@H]3CN(C)CCC231 (some centres undefined),inactive: -5.63%
